Test results: PMC12525728, “Safety, Pharmacokinetics, Translational and Molecular Mechanistic Insights on the Prostate Cancer Recurrence Suppressor Pseurotin A” (Molecules, 2025)

System: recurrent CWR-R1ca tumors
Assay: RNA-Seq differential gene expression of recurrent tumors, PsA versus VC
Assay type: in vivo, athymic male nude mice
Conditions: PsA 20 mg/kg vs VC recurrent tumors

`CC/C=C\[C@H](O)[C@H](O)C1=C(C)C(=O)[C@]2(O1)C(=O)N[C@@](OC)(C(=O)c1ccccc1)[C@@H]2O` [PsA, pseurotin A] was tested, and the “number of significantly downregulated genes” value (log2FC ≤ −1.5, adjusted p ≤ 0.05, FDR ≤ 0.1) was 352 and the “number of significantly upregulated genes” value (log2FC ≥ 1.5, adjusted p ≤ 0.05, FDR ≤ 0.1) was 486.
